3 molecules from publication PMC7957392, “Yeast translation elongation factor eEF3 promotes late stages of tRNA translocation” (The EMBO Journal, 2021) can be followed below.

By UniProt entry, the sequences of proteins in these tests, tags left out.
UniProt P0CX43: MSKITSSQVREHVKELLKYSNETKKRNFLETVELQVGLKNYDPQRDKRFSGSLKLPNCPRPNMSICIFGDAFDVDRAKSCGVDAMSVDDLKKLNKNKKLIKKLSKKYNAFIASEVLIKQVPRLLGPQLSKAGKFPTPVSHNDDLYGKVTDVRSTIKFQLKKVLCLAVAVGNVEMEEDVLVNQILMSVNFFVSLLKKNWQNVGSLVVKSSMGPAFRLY

These are yes or no findings as the source states them, for the method shown. Some binding calls cover weakened binding; strength is not graded here. Sequences can lack the tags named with a protein.

Experiment [1] addresses T1, eEF3 (yeast translation elongation factor 3), C-terminally TAP-tagged (S. cerevisiae) (UniProt P16521).
T1 sequence: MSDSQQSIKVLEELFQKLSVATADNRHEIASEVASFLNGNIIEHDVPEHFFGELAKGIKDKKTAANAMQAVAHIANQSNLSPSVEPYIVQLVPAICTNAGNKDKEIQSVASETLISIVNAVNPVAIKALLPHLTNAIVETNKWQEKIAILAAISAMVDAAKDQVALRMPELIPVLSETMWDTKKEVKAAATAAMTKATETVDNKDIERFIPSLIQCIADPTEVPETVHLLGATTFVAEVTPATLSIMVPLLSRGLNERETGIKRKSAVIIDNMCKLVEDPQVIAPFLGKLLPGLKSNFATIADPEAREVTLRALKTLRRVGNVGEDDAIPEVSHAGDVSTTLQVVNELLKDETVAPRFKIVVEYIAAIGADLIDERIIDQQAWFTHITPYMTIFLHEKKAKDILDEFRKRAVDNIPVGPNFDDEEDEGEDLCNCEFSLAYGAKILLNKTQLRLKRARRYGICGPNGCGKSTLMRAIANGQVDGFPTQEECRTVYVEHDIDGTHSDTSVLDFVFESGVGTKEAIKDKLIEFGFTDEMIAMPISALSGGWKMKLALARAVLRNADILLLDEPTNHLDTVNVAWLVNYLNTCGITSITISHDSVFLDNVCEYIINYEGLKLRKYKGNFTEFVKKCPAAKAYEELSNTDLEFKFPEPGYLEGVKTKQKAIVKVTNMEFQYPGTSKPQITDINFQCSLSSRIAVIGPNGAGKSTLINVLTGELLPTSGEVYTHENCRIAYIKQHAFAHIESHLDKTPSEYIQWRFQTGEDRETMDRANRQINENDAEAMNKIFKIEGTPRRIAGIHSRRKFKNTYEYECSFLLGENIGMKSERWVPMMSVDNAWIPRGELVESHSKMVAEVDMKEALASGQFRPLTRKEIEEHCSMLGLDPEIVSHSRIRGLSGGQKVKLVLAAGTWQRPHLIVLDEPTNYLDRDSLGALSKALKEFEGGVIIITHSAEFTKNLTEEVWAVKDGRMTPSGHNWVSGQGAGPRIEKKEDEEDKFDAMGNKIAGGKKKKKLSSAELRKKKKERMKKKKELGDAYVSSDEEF
The experiment can be described thus: cryo-EM structure; same pull-out and cross-linked sample; non-rotated POST-2 subclass (P/P- and E/E-tRNA, L1 stalk 'int'), 3.9 Å.

Experiment [2] addresses T1, eEF3 (yeast translation elongation factor 3), C-terminally TAP-tagged (S. cerevisiae). The experiment can be described thus: cryo-EM structure; native eEF3-80S complex from the eEF3-TAP pull-out, eluted with TEV protease in buffer 30 with 1 mM ADPNP, cross-linked with 0.02% glutaraldehyde; group I particles sorted with a mask on eEF3, 3.3 Å, multi-body refinement.

As to “ribosomal protein uL1 (L1 stalk of the 60S subunit) (from UniProt P0CX43 1-217)”, the binding entry in experiment [1] is reported as “binds”.

B1: ribosomal protein uL18 (60S subunit) (protein, UniProt P26321 1-297)
chain: MAFQKDAKSSAYSSRFQTPFRRRREGKTDYYQRKRLVTQHKAKYNTPKYRLVVRFTNKDIICQIISSTITGDVVLAAAYSHELPRYGITHGLTNWAAAYATGLLIARRTLQKLGLDETYKGVEEVEGEYELTEAVEDGPRPFKVFLDIGLQRTTTGARVFGALKGASDGGLYVPHSENRFPGWDFETEEIDPELLRSYIFGGHVSQYMEELADDDEERFSELFKGYLADDIDADSLEDIYTSAHEAIRADPAFKPTEKKFTKEQYAAESKKYRQTKLSKEERAARVAAKIAALAGQQ
As for B1, in experiment [2], the binding entry was “binds”.

B2: ribosomal protein uS13 (40S subunit head) (protein, UniProt P0CX55 1-146)
chain: MSLVVQEQGSFQHILRLLNTNVDGNIKIVYALTTIKGVGRRYSNLVCKKADVDLHKRAGELTQEELERIVQIMQNPTHYKIPAWFLNRQNDITDGKDYHTLANNVESKLRDDLERLKKIRAHRGIRHFWGLRVRGQHTKTTGRRRA
In the case of B2, the binding result in experiment [2] is “binds”.
